The record followed here is PMC9110474.

Protein sequences, listed by entry. Tags and fused reporters are not part of them.
UniProt P99999: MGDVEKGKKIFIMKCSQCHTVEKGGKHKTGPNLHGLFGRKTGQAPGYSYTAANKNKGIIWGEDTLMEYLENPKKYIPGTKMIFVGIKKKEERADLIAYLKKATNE
UniProt P21796: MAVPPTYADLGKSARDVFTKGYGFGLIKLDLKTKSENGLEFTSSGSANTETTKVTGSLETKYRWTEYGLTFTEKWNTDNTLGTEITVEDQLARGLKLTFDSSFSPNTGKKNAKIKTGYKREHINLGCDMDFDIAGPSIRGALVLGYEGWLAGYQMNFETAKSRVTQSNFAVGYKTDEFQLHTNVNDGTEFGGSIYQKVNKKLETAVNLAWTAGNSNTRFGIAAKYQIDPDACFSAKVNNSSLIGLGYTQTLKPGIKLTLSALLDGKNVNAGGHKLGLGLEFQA
UniProt Q9BXM7: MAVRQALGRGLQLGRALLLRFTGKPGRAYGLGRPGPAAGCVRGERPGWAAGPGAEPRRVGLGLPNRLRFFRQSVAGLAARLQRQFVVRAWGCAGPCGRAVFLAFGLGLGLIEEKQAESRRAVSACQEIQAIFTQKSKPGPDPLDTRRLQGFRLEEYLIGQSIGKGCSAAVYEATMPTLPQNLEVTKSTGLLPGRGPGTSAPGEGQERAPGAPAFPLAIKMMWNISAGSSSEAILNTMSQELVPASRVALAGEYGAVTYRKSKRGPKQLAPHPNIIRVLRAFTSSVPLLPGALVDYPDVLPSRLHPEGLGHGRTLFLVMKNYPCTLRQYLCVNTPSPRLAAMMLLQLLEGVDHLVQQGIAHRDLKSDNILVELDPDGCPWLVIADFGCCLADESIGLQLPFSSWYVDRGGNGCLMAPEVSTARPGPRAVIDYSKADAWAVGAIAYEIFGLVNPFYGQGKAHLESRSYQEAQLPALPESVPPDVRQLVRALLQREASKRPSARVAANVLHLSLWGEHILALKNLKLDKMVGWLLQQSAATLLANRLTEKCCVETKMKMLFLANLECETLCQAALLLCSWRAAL

The target in test [1] is Cytochrome C (endogenous) (human (endogenous in HeLa or U2OS mitochondria)) (UniProt P99999). The test is described as follows: co-IP; after import of radiolabeled PINK1 into depolarized (CCCP) mitochondria, digitonin lysate incubated 30 min at 4 °C with antibody (anti-TOM22; controls anti-Cytochrome C, anti-VDAC1) and protein A beads; supernatant on BN-PAGE, eluate on SDS-PAGE with autoradiography and western blot.

Test [2] addresses VDAC1 (endogenous) (human (endogenous in HeLa or U2OS mitochondria)) (UniProt P21796). The description is as above.

No constants are given. Whether binding was seen depends on the method and setting. In cells and extracts the contact can be indirect.

As for “PINK1 (human, native, radiolabeled) (from UniProt Q9BXM7 1-581)”, the binding result in test [1] and in test [2] was “no binding” each time.
